# Screening data

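A panel of P. falciparum strains inside erythrocytes is exposed to compounds for three days, then a DNA-binding dye reports the amount of parasite DNA.
Each compound was titrated across a series from about 0.000037 to 29 µM.
The number is the fitted AC50, the concentration giving a half-maximal change in signal; a lower value means higher potency, whether the curve shows a decrease or an increase.
Calls follow the curve class and fit quality: every row here is inconclusive, covering signal-raising curves and weak, poorly fitted, partial or highest-dose-only inhibition curves.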

Values are in nM.
Every entry below has the call inconclusive.
Only part of the assay is shown, chiefly results filed as inconclusive.
A potency from a partial, single-point or poor curve is only a rough figure.
The first word of each remark tells which way the curve ran; it can be opposite to the aim of the assay.

Compound: CCCCCCCCCc1ccc(OCCOCCOCCOCCOCCOCCOCCOCCOCCO)cc1
tested on / at: DIV17
fitted potency (nM): 8492
remark: inhibitor, partial curve

Compound: CCCCCCCCCc1ccc(OCCOCCOCCOCCOCCOCCOCCOCCOCCO)cc1
tested on / at: ATS189
fitted potency (nM): 17782
remark: inhibitor, single point

Compound: CCCCCCCCCc1ccc(OCCOCCOCCOCCOCCOCCOCCOCCOCCO)cc1
tested on / at: AS120
fitted potency (nM): 12589
remark: inhibitor, partial curve

Compound: CCCCCCCCCc1ccc(OCCOCCOCCOCCOCCOCCOCCOCCOCCO)cc1
tested on / at: ECU
fitted potency (nM): 11220
remark: inhibitor, single point

Compound: CCCCCCCCCc1ccc(OCCOCCOCCOCCOCCOCCOCCOCCOCCO)cc1
tested on / at: PC26
fitted potency (nM): 8492
remark: inhibitor, partial curve

Compound: CCCCCCCCCc1ccc(OCCOCCOCCOCCOCCOCCOCCOCCOCCO)cc1
tested on / at: CP269
fitted potency (nM): 10690
remark: inhibitor, single point

Compound: CCCCCCCCCc1ccc(OCCOCCOCCOCCOCCOCCOCCOCCOCCO)cc1
tested on / at: CP191
fitted potency (nM): 8912
remark: inhibitor, partial curve

Compound: CCCCCCCCCc1ccc(OCCOCCOCCOCCOCCOCCOCCOCCOCCO)cc1
tested on / at: CP297
fitted potency (nM): 1.1
remark: activator

Compound: CCCCCCCCCc1ccc(OCCOCCOCCOCCOCCOCCOCCOCCOCCO)cc1
tested on / at: CP203
fitted potency (nM): 10690
remark: inhibitor, partial curve, poor fit

Compound: CCCCCCCCCc1ccc(OCCOCCOCCOCCOCCOCCOCCOCCOCCO)cc1
tested on / at: P93_24
fitted potency (nM): 8912
remark: inhibitor, single point

Compound: CCCCCCCCCc1ccc(OCCOCCOCCOCCOCCOCCOCCOCCOCCO)cc1
tested on / at: CP217
fitted potency (nM): 8912
remark: inhibitor, single point

Compound: CCCCCCCCCc1ccc(OCCOCCOCCOCCOCCOCCOCCOCCOCCO)cc1
tested on / at: CP247
fitted potency (nM): 17782
remark: inhibitor, single point

Compound: CCCCCCCCCc1ccc(OCCOCCOCCOCCOCCOCCOCCOCCOCCO)cc1
tested on / at: PAD
fitted potency (nM): 10000
remark: inhibitor, single point

Compound: CC(=O)[C@H]1CC[C@H]2C3CC=C4C[C@@H](O)CC[C@]4(C)C3CC[C@]12C (some centres not stated)
tested on / at: parasite line B
fitted potency (nM): 17782
remark: inhibitor, single point

Compound: C=CCNC1=C2C[C@@H](C)C[C@H](OC)[C@H](O)[C@@H](C)/C=C(\C)[C@H](OC(N)=O)[C@@H](OC)/C=C\C=C(/C)C(=O)NC(=CC1=O)C2=O
tested on / at: Dd2
fitted potency (nM): 8.9
remark: inhibitor, full curve, poor fit

Compound: C=CCNC1=C2C[C@@H](C)C[C@H](OC)[C@H](O)[C@@H](C)/C=C(\C)[C@H](OC(N)=O)[C@@H](OC)/C=C\C=C(/C)C(=O)NC(=CC1=O)C2=O
tested on / at: CP262
fitted potency (nM): 4256
remark: inhibitor, single point

Compound: C#CC1(O)C=CC2C3CCC4=CC(=O)CCC4C3CCC21CC (configuration not stated)
tested on / at: GB4
fitted potency (nM): 16944
remark: inhibitor, single point

Compound: C#CC1(O)C=CC2C3CCC4=CC(=O)CCC4C3CCC21CC (configuration not stated)
tested on / at: PC49
fitted potency (nM): 14125
remark: inhibitor, single point

Compound: C#CC1(O)C=CC2C3CCC4=CC(=O)CCC4C3CCC21CC (configuration not stated)
tested on / at: PAD
fitted potency (nM): 11220
remark: inhibitor, partial curve, poor fit

Compound: C#CC1(O)C=CC2C3CCC4=CC(=O)CCC4C3CCC21CC (configuration not stated)
tested on / at: ICS
fitted potency (nM): 17782
remark: inhibitor, single point

Compound: C#CC1(O)C=CC2C3CCC4=CC(=O)CCC4C3CCC21CC (configuration not stated)
tested on / at: FAB9
fitted potency (nM): 10000
remark: inhibitor, single point

Compound: C#CC1(O)C=CC2C3CCC4=CC(=O)CCC4C3CCC21CC (configuration not stated)
tested on / at: P93_24
fitted potency (nM): 12589
remark: inhibitor, partial curve, poor fit

Compound: C#CC1(O)C=CC2C3CCC4=CC(=O)CCC4C3CCC21CC (configuration not stated)
tested on / at: TAB109
fitted potency (nM): 5623
remark: inhibitor, partial curve

Compound: C#CC1(O)C=CC2C3CCC4=CC(=O)CCC4C3CCC21CC (configuration not stated)
tested on / at: TAB165
fitted potency (nM): 10000
remark: inhibitor, single point

Compound: C#CC1(O)C=CC2C3CCC4=CC(=O)CCC4C3CCC21CC (configuration not stated)
tested on / at: SC27B
fitted potency (nM): 10000
remark: inhibitor, single point

Compound: C#CC1(O)C=CC2C3CCC4=CC(=O)CCC4C3CCC21CC (configuration not stated)
tested on / at: TAB113
fitted potency (nM): 11220
remark: inhibitor, single point

Compound: C#CC1(O)C=CC2C3CCC4=CC(=O)CCC4C3CCC21CC (configuration not stated)
tested on / at: DIV30
fitted potency (nM): 13459
remark: inhibitor, partial curve

Compound: C#CC1(O)C=CC2C3CCC4=CC(=O)CCC4C3CCC21CC (configuration not stated)
tested on / at: P94_40
fitted potency (nM): 12589
remark: inhibitor, single point

Compound: O=C(O)CCC/C=C\C[C@@H]1[C@@H](/C=C/[C@@H](O)COc2cccc(C(F)(F)F)c2)[C@H](O)C[C@@H]1O
tested on / at: PC26
fitted potency (nM): 8492
remark: inhibitor, partial curve, poor fit

From PubChem BioAssay record AID504749 (NCATS, 2011).